Data reported in publication PMC12091907.
These are yes or no findings as the source states them, for the method shown. For part of these data: In cells and extracts the contact can be indirect. Some binding calls cover weakened binding; strength is not graded here.

Sequences of proteins named here, by UniProt entry; tags and fusion partners are left off. A change or cut given only in a name is not applied to a line headed by its entry. Residues count along the entry.
UniProt P16070: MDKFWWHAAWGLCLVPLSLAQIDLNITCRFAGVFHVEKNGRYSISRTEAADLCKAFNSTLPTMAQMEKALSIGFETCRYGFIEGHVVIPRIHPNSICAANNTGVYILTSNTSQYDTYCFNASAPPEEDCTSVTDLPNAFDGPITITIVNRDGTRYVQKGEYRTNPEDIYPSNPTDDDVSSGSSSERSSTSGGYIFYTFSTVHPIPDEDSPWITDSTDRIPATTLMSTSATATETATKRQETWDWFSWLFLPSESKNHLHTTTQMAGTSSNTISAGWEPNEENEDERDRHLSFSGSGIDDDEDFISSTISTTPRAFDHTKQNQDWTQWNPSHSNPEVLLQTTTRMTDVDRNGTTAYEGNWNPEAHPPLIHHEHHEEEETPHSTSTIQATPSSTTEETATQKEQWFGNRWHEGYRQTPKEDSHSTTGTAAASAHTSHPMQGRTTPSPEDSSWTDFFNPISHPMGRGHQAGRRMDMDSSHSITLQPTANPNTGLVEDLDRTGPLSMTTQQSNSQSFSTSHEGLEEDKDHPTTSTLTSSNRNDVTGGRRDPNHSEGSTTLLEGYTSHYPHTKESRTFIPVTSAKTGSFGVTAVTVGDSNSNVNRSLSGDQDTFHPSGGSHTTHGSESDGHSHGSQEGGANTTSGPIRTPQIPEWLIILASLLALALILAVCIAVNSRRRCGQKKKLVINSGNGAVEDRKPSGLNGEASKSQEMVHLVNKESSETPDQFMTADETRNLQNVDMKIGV
CD44 succinylated at lysine 158, endogenous in TcdB/FBD-treated THP-1-Mφ (human (endogenous in THP-1)): residues 21-742 of P16070
human CD44 extracellular domain (CD44-ECD, amino acids 21-220), labeled with Fc: residues 21-220 of P16070
UniProt Q6UVK1, residues 30-2224: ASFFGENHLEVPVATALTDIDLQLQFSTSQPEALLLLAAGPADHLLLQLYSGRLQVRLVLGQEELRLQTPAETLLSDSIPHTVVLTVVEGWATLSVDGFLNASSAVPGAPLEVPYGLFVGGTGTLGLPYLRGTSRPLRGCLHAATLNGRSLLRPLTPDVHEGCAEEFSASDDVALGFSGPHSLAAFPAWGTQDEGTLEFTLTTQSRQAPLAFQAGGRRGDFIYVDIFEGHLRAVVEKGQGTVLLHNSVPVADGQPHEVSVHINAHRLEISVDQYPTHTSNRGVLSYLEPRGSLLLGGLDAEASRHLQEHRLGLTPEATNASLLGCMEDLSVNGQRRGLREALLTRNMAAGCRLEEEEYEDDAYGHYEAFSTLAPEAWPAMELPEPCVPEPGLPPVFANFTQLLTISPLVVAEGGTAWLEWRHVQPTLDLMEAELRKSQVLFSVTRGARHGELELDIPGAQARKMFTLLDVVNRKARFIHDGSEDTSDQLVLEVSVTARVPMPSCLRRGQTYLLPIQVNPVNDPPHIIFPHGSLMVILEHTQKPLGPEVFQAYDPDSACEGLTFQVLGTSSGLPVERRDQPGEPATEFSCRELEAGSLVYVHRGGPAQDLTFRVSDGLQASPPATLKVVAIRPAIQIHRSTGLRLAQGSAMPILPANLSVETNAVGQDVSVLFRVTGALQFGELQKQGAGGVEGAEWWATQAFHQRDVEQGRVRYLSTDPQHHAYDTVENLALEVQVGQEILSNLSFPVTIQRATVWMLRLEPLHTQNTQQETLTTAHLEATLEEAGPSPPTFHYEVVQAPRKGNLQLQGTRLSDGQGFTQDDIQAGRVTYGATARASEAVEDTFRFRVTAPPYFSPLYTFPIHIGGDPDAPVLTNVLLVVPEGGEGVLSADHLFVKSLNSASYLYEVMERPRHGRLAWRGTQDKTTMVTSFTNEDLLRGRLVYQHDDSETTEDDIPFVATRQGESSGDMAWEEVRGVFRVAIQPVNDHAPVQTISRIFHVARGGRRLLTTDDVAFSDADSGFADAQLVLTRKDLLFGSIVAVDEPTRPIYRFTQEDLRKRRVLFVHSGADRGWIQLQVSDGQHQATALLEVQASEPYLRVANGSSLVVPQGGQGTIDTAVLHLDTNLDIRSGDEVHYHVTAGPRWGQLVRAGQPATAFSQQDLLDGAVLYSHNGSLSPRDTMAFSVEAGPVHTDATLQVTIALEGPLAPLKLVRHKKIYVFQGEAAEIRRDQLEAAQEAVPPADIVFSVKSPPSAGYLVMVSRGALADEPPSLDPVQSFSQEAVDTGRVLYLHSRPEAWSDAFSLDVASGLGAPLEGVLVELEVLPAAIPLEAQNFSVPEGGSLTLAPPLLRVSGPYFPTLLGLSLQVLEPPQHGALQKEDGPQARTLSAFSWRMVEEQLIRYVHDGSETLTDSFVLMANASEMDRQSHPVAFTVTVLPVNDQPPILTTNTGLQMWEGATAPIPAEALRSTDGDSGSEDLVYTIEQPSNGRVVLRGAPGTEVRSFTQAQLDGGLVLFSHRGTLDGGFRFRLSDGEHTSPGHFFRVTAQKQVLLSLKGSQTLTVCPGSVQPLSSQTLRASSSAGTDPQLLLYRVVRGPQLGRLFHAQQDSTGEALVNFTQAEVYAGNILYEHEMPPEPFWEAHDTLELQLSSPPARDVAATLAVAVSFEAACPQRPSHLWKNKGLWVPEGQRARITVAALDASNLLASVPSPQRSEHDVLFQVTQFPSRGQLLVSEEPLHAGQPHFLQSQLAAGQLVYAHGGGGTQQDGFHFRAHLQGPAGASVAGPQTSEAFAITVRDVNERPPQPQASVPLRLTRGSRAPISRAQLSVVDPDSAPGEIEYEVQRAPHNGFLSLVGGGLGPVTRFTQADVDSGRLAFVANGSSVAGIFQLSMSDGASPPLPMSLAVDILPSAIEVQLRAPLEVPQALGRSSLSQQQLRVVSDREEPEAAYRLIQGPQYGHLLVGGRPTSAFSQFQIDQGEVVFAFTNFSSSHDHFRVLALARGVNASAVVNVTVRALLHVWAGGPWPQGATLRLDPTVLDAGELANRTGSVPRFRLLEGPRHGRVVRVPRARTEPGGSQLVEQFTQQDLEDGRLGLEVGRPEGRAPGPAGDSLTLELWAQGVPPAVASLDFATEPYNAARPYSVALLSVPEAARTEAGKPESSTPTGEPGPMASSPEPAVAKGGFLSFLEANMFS
UniProt P18177: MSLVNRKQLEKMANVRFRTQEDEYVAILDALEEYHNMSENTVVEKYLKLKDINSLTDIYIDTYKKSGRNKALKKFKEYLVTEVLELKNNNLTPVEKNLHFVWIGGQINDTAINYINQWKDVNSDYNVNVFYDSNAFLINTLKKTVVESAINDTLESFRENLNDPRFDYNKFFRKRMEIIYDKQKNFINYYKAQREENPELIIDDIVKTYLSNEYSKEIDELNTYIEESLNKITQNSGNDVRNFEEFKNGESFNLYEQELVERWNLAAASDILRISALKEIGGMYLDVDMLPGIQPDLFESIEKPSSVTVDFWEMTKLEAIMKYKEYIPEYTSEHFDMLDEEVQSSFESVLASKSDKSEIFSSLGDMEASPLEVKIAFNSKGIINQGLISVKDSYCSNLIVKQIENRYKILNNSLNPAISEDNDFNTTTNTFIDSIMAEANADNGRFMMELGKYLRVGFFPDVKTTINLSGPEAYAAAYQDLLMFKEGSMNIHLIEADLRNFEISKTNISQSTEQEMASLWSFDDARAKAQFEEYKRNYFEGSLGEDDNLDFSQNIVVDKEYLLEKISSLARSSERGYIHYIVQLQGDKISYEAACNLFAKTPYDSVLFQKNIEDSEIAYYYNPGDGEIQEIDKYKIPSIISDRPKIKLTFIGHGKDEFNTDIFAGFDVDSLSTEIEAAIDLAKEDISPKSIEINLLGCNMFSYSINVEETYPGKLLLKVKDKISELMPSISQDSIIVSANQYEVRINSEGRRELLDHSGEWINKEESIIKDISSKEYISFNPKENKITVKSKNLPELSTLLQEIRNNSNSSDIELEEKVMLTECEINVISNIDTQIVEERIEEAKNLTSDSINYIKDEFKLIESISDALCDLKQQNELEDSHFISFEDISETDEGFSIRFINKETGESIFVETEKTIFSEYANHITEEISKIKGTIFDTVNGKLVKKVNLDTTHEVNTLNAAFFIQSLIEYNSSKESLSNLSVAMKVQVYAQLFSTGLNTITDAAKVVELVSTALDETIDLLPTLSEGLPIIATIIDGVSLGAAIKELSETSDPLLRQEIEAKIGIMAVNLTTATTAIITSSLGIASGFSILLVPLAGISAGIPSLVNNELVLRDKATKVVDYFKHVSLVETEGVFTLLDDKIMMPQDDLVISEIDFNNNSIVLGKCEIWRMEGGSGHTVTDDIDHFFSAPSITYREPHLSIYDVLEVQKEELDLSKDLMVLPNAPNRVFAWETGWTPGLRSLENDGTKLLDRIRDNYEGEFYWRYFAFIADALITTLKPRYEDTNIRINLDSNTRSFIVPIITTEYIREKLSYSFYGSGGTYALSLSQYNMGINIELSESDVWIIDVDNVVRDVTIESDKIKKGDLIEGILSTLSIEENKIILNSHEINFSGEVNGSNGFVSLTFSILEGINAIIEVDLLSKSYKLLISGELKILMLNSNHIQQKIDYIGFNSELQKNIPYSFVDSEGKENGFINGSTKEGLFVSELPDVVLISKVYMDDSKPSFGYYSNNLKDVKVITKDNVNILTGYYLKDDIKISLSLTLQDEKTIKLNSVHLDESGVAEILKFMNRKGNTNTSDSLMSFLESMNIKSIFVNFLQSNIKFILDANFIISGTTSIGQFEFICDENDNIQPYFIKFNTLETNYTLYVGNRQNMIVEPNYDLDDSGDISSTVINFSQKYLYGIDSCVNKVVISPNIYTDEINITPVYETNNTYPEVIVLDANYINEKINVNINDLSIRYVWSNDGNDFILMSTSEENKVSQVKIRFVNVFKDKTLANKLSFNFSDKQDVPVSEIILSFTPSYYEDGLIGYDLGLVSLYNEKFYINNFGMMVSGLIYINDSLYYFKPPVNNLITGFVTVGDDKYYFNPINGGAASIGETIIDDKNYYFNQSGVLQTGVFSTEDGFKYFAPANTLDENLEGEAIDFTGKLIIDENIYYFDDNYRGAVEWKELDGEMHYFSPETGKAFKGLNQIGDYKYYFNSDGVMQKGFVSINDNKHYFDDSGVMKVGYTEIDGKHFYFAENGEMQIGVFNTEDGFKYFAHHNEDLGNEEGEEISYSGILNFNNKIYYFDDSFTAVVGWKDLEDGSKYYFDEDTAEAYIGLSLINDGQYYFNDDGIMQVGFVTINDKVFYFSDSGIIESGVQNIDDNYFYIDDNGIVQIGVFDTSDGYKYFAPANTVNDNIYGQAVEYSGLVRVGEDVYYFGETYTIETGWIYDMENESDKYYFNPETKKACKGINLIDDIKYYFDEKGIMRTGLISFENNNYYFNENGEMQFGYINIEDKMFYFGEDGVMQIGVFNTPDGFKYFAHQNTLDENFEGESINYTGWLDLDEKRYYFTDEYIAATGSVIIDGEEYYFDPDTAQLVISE

Assays:
[1] = target: human CD44 extracellular domain (CD44-ECD, amino acids 21-220), labeled with Fc (human) (UniProt P16070); assay: ELISA; both purified
[2] = target: chondroitin sulfate proteoglycan 4 (CSPG4), soluble receptor protein (UniProt Q6UVK1); assay: ELISA; both purified
[3] = target: CD44 succinylated at lysine 158, endogenous in TcdB/FBD-treated THP-1-Mφ (human (endogenous in THP-1)) (UniProt P16070); assay: co-IP

Molecule	binding [1]	binding [2]	binding [3]
Toxin B (TcdB) from Clostridioides difficile, native full-length (from UniProt P18177 1-2366)	binds	binds	
SUCLG2, endogenous in THP-1-Mφ (enzyme, UniProt Q96I99 38-432) LNLQEYQSKKLMSDNGVRVQRFFVADTANEALEAAKRLNAKEIVLKAQILAGGRGKGVFNSGLKGGVHLTKDPNVVGQLAKQMIGYNLATKQTPKEGVKVNKVMVAEALDISRETYLAILMDRSCNGPVLVGSPQGGVDIEEVAASNPELIFKEQIDIFEGIKDSQAQRMAENLGFVGPLKSQAADQITKLYNLFLKIDATQVEVNPFGETPEGQVVCFDAKINFDDNAEFRQKDIFAMDDKSENEPIENEAAKYDLKYIGLDGNIACFVNGAGLAMATCDIIFLNGGKPANFLDLGGGVKEAQVYQAFKLLTADPKVEAILVNIFGGIVNCAIIANGITKACRELELKVPLVVRLEGTNVQEAQKILNNSGLPITSAIDLEDAAKKAVASVAKK			binds
